Data on seven molecules can be found in PMC8575775, “Structural basis of the interaction between SETD2 methyltransferase and hnRNP L paralogs for governing co-transcriptional splicing” (Nature Communications, 2021).

Results are given in words; binding and its absence hold for the method and conditions named. For some of these results: In cells and extracts the contact can be indirect. Some results given as binding are weak or reduced against the parent protein; the word gives no strength. For some of these results: Where a sequence is shown, tags or fusion partners need not be part of it.

Assay [1] deals with T1, hnRNP L RRM2 Y257A (human) (UniProt P14866).
T1 sequence: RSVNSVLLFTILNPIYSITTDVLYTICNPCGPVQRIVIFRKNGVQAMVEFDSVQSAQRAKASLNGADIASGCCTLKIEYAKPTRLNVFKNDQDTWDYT
The experiment in a line: condition: about 600 µM peptide in the syringe, about 50 µM protein in the cell; ITC; SETD2 peptides (about 600 µM, syringe) titrated into hnRNP L / hnRNP LL proteins (about 50 µM, cell); 20 °C; Microcal PEAQ-ITC; one-site binding model; mean of three independent experiments; both purified.

The target of assay [2] is T2, Halo-SETD2C (1404–2564) (human) (UniProt Q9BYW2).
T2 sequence: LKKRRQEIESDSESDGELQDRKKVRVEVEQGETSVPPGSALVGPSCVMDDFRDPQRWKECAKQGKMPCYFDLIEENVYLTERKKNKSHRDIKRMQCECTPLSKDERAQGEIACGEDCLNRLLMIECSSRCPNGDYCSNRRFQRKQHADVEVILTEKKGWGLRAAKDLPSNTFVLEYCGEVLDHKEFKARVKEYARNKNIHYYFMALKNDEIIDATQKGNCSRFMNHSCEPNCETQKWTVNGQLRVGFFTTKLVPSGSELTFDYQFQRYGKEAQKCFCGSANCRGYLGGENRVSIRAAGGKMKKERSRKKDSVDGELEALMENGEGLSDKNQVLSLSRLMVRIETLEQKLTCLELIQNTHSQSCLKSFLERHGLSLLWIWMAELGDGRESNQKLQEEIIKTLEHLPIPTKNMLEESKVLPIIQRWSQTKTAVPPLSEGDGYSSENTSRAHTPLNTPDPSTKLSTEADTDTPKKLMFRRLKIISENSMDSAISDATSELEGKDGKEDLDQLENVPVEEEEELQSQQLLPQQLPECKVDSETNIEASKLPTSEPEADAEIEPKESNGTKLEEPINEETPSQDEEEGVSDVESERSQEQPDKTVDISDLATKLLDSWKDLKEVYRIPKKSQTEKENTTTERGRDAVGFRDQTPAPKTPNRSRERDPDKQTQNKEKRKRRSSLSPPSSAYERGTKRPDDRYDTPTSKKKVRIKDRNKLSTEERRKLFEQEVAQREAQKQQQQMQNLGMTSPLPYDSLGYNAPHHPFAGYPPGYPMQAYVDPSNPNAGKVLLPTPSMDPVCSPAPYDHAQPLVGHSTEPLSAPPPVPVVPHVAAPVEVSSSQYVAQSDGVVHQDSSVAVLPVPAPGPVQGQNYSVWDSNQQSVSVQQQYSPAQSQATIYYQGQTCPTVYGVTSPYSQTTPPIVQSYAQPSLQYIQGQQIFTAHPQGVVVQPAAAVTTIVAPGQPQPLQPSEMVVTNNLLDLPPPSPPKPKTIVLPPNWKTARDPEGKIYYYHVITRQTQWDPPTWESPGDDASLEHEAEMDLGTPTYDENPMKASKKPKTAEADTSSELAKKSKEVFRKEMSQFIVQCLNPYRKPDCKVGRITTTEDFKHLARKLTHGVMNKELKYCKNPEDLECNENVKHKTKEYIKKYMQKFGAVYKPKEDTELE
The experiment in a line: pull-down; Halo-tagged bait and tagged prey (mCherry-HA or GFP-FLAG) co-expressed in 293T cells; Halo affinity purification from extracts; western blotting of input and eluate. (In western blotting, separated proteins are transferred to a membrane and probed.)

Another assay concerns the target T3, Halo-ySet2 (yeast) (UniProt P46995).
T3 sequence: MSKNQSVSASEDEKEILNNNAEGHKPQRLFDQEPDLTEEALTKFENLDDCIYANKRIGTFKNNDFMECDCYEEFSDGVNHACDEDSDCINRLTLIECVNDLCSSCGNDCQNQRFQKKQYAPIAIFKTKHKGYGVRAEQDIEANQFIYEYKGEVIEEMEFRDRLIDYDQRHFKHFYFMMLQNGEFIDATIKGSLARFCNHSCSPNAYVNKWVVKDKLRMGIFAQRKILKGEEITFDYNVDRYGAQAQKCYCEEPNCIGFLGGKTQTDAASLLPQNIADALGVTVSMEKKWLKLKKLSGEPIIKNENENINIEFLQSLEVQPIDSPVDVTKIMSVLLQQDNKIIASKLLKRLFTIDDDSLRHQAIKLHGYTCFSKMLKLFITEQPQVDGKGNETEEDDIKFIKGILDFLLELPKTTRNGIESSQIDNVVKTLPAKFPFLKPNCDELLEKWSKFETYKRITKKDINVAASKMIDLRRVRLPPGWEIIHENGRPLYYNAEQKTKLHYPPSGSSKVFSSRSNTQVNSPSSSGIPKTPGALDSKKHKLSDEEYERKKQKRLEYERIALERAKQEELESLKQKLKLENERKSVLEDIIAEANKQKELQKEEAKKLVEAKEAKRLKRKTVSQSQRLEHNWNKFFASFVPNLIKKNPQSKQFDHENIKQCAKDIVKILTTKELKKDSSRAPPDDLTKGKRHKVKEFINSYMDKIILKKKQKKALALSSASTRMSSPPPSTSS
The experiment in a line: pull-down; Halo-tagged bait expressed in 293T cells, captured from extracts on Magne HaloTag beads (wash 300 mM NaCl), eluted with TEV protease; endogenous preys seen by western blotting and silver staining; for SETD2CΔSRI with and without RNase treatment.

Assay [3] deals with T4, hnRNP L^Y257A RRM2 (human) (UniProt P14866).
T4 sequence: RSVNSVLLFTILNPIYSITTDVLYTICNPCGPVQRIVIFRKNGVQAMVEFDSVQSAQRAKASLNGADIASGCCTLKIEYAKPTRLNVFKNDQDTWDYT
The experiment in a line: condition: about 600 µM peptide titrated into about 50 µM protein; ITC; SETD2 peptide (about 600 µM, syringe) titrated into the protein (about 50 µM, sample pool); 20 °C; MicroCal PEAQ-ITC; one-site binding model; three independent titrations; both purified.

Assay [4] addresses T5, hnRNP L RRM2 (residues 189-286) (human, UniProt P14866 189-286).
T5 construct: hnRNP L, human, RRM2 fragment, residues 189-286, amplified from a human brain cDNA library; Cloned into a modified pET28a vector without a thrombin cleavage site (p28a); also called hnRNP L RRM2 WT; source: E. coli BL21 (DE3), purified (Ni-NTA, size-exclusion chromatography)
T5 sequence (looked up): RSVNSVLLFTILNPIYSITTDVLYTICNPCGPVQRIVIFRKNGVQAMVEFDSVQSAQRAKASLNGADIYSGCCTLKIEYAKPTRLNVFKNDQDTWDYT
The experiment in a line: condition: about 600 µM peptide in the syringe, about 50 µM protein in the cell; ITC; SETD2 peptides (about 600 µM, syringe) titrated into hnRNP L / hnRNP LL proteins (about 50 µM, cell); 20 °C; Microcal PEAQ-ITC; one-site binding model; mean of three independent experiments; both purified.

Take YPPGYPMQAYVDPSNPNAGKVLLPTP (peptide, UniProt Q9BYW2 2167-2192) [SETD2 2167–2192 peptide]: the binding result in assay [1] is reported as “no binding”.

B1: mCherry-HA-hnRNP L FL (WT) (protein, UniProt P14866 1-589)
chain: MSRRLLPRAEKRRRRLEQRQQPDEQRRRSGAMVKMAAAGGGGGGGRYYGGGSEGGRAPKRLKTDNAGDQHGGGGGGGGGAGAAGGGGGGENYDDPHKTPASPVVHIRGLIDGVVEADLVEALQEFGPISYVVVMPKKRQALVEFEDVLGACNAVNYAADNQIYIAGHPAFVNYSTSQKISRPGDSDDSRSVNSVLLFTILNPIYSITTDVLYTICNPCGPVQRIVIFRKNGVQAMVEFDSVQSAQRAKASLNGADIYSGCCTLKIEYAKPTRLNVFKNDQDTWDYTNPNLSGQGDPGSNPNKRQRQPPLLGDHPAEYGGPHGGYHSHYHDEGYGPPPPHYEGRRMGPPVGGHRRGPSRYGPQYGHPPPPPPPPEYGPHADSPVLMVYGLDQSKMNCDRVFNVFCLYGNVEKVKFMKSKPGAAMVEMADGYAVDRAITHLNNNFMFGQKLNVCVSKQPAIMPGQSYGLEDGSCSYKDFSESRNNRFSTPEQAAKNRIQHPSNVLHFFNAPLEVTEENFFEICDELGVKRPSSVKVFSGKSERSSSGLLEWESKSDALETLGFLNHYQMKNPNGPYPYTLKLCFSTAQHAS
With B1, the binding result in assay [2] was “binds”.

B2: mCherry-HA-hnRNP L FL I256A Y257A (protein, UniProt P14866 1-589)
chain: MSRRLLPRAEKRRRRLEQRQQPDEQRRRSGAMVKMAAAGGGGGGGRYYGGGSEGGRAPKRLKTDNAGDQHGGGGGGGGGAGAAGGGGGGENYDDPHKTPASPVVHIRGLIDGVVEADLVEALQEFGPISYVVVMPKKRQALVEFEDVLGACNAVNYAADNQIYIAGHPAFVNYSTSQKISRPGDSDDSRSVNSVLLFTILNPIYSITTDVLYTICNPCGPVQRIVIFRKNGVQAMVEFDSVQSAQRAKASLNGADAASGCCTLKIEYAKPTRLNVFKNDQDTWDYTNPNLSGQGDPGSNPNKRQRQPPLLGDHPAEYGGPHGGYHSHYHDEGYGPPPPHYEGRRMGPPVGGHRRGPSRYGPQYGHPPPPPPPPEYGPHADSPVLMVYGLDQSKMNCDRVFNVFCLYGNVEKVKFMKSKPGAAMVEMADGYAVDRAITHLNNNFMFGQKLNVCVSKQPAIMPGQSYGLEDGSCSYKDFSESRNNRFSTPEQAAKNRIQHPSNVLHFFNAPLEVTEENFFEICDELGVKRPSSVKVFSGKSERSSSGLLEWESKSDALETLGFLNHYQMKNPNGPYPYTLKLCFSTAQHAS
For the molecule B2, in assay [2], the binding result is on record as “no binding”.

B3: hnRNP LL (endogenous) (protein, UniProt Q8WVV9 1-542)
chain: MSSSSSSPRETYEEDREYESQAKRLKTEEGEIDYSAEEGENRREATPRGGGDGGGGGRSFSQPEAGGSHHKVSVSPVVHVRGLCESVVEADLVEALEKFGTICYVMMMPFKRQALVEFENIDSAKECVTFAADEPVYIAGQQAFFNYSTSKRITRPGNTDDPSGGNKVLLLSIQNPLYPITVDVLYTVCNPVGKVQRIVIFKRNGIQAMVEFESVLCAQKAKAALNGADIYAGCCTLKIEYARPTRLNVIRNDNDSWDYTKPYLGRRDRGKGRQRQAILGEHPSSFRHDGYGSHGPLLPLPSRYRMGSRDTPELVAYPLPQASSSYMHGGNPSGSVVMVSGLHQLKMNCSRVFNLFCLYGNIEKVKFMKTIPGTALVEMGDEYAVERAVTHLNNVKLFGKRLNVCVSKQHSVVPSQIFELEDGTSSYKDFAMSKNNRFTSAGQASKNIIQPPSCVLHYYNVPLCVTEETFTKLCNDHEVLTFIKYKVFDAKPSAKTLSGLLEWECKTDAVEALTALNHYQIRVPNGSNPYTLKLCFSTSSHL
For B3, the binding result with Halo-ySet2 (yeast) was “no binding”.
As to YPPGYPMQAYVDPSNPNAGKVLLPTP (peptide, UniProt Q9BYW2 2167-2192) [SETD2^2167-2192 peptide], the binding result in assay [3] is “no binding”.

B4: mCherry-HA-hnRNP L 322–589 (domain or fragment, UniProt P14866 322-589)
chain: GGYHSHYHDEGYGPPPPHYEGRRMGPPVGGHRRGPSRYGPQYGHPPPPPPPPEYGPHADSPVLMVYGLDQSKMNCDRVFNVFCLYGNVEKVKFMKSKPGAAMVEMADGYAVDRAITHLNNNFMFGQKLNVCVSKQPAIMPGQSYGLEDGSCSYKDFSESRNNRFSTPEQAAKNRIQHPSNVLHFFNAPLEVTEENFFEICDELGVKRPSSVKVFSGKSERSSSGLLEWESKSDALETLGFLNHYQMKNPNGPYPYTLKLCFSTAQHAS
For the molecule B4, the binding result in assay [2] was “no binding”.
In the case of RNKLSTEERRKLFEQEVAQREAQKQQQQ (peptide, UniProt Q9BYW2 2113-2140) [SETD2 2113–2140 fragment], the binding entry in assay [4] is “no binding”.
